Assay results from the supplement of paper PMC10849652.
The other results are listed elsewhere or left out.

Protein sequences, listed by entry. Tags and fused reporters are not part of them. Lines headed by an entry give the natural chain unless they say otherwise; changes in a name come on top.
UniProt Q15773: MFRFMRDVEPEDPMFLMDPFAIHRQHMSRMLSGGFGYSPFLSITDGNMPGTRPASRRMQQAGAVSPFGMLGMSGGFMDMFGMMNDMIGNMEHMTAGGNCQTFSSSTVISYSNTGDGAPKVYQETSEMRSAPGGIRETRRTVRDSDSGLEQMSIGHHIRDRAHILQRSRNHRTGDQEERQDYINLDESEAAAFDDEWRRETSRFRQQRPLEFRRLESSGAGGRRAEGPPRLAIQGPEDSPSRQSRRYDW
UniProt Q9NPJ1: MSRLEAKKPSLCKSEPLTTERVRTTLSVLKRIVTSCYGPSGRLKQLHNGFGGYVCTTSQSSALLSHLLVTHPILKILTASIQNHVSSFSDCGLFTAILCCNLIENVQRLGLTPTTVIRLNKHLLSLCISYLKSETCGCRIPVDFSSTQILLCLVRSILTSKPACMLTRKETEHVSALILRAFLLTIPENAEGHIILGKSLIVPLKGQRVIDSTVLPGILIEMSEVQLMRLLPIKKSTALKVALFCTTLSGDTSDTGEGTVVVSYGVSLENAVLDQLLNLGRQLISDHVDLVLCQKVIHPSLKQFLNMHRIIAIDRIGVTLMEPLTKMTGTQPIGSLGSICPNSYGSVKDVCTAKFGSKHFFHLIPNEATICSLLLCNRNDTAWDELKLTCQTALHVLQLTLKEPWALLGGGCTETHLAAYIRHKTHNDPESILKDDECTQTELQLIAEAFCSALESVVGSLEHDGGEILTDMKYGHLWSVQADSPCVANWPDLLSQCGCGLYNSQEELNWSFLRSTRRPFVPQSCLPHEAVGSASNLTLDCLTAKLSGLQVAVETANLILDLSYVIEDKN
UniProt O60291: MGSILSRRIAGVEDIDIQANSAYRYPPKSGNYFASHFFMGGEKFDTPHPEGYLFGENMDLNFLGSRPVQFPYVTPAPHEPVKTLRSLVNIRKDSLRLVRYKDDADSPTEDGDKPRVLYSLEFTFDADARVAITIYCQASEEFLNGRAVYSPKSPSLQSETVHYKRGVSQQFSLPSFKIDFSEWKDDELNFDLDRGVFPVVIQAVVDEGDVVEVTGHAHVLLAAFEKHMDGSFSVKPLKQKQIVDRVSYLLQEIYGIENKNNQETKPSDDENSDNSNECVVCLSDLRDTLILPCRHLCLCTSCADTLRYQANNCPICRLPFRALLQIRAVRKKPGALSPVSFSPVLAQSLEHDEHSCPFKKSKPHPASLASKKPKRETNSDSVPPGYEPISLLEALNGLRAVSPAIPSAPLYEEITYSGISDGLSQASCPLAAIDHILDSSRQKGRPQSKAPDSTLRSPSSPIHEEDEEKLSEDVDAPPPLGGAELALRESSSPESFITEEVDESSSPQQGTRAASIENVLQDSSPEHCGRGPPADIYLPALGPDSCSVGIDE
UniProt O96033: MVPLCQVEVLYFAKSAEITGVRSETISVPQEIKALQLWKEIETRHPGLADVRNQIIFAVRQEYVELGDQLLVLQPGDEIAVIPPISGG
UniProt Q9NPA3, whole entry, looked up: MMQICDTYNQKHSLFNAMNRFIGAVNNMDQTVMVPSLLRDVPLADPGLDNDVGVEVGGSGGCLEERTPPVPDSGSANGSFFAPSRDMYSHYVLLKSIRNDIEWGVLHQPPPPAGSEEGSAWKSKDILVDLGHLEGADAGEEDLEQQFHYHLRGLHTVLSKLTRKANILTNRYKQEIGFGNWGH
UniProt Q96FF7: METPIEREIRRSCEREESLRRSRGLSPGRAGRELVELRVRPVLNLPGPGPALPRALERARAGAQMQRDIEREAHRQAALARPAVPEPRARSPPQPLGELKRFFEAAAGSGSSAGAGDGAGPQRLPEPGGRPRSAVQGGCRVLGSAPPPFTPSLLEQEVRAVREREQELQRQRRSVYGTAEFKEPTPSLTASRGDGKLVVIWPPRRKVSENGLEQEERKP
UniProt Q8N3R9: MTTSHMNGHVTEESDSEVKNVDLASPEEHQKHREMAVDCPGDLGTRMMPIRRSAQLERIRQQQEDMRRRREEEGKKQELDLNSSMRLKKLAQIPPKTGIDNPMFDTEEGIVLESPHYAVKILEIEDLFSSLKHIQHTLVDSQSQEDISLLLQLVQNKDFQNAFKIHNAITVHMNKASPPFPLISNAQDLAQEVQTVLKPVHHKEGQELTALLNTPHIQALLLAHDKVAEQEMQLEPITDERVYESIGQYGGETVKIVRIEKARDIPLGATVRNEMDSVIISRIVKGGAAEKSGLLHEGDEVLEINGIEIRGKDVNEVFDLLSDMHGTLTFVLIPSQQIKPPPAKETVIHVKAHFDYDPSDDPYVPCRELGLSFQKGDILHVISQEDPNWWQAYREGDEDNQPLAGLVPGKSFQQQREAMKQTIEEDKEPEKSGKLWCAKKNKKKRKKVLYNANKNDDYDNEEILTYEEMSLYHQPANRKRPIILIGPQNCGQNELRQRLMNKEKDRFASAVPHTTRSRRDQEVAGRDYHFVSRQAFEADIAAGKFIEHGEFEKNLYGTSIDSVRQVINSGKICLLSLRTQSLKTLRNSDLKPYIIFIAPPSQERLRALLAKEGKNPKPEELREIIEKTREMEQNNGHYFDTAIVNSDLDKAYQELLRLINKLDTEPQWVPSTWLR
UniProt Q99549: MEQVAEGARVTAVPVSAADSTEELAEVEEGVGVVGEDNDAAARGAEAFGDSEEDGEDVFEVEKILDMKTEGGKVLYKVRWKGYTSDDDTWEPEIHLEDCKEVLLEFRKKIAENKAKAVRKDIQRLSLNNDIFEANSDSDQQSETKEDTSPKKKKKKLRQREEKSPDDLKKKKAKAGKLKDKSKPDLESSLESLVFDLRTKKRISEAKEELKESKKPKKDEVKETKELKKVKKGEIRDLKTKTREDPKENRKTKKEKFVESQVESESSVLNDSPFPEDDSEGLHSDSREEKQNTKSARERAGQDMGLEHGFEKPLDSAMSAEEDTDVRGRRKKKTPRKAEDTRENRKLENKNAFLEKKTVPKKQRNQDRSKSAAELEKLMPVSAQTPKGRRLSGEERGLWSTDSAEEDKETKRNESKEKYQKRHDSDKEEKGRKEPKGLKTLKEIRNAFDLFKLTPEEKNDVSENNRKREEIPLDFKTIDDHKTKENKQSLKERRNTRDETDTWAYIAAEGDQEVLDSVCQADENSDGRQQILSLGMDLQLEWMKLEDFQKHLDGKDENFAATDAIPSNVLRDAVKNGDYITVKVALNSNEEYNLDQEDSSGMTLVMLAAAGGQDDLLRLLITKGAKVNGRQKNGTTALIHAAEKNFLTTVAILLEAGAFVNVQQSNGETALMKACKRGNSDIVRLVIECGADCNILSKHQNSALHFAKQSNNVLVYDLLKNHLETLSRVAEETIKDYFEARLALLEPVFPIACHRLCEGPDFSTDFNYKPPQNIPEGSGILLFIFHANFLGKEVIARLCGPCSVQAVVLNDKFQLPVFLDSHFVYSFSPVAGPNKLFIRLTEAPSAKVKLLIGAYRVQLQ
UniProt Q8NB16: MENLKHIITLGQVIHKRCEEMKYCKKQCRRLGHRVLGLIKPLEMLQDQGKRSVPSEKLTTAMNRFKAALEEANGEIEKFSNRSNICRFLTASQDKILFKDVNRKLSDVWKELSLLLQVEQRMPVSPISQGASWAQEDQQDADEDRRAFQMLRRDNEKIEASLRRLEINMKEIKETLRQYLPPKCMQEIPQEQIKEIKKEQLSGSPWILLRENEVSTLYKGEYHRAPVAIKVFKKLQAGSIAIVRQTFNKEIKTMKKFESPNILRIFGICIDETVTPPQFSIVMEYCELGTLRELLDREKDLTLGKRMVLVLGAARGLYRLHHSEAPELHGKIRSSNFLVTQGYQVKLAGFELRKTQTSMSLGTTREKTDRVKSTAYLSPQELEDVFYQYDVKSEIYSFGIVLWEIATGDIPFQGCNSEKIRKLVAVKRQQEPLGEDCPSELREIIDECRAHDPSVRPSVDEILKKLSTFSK
UniProt Q8N344: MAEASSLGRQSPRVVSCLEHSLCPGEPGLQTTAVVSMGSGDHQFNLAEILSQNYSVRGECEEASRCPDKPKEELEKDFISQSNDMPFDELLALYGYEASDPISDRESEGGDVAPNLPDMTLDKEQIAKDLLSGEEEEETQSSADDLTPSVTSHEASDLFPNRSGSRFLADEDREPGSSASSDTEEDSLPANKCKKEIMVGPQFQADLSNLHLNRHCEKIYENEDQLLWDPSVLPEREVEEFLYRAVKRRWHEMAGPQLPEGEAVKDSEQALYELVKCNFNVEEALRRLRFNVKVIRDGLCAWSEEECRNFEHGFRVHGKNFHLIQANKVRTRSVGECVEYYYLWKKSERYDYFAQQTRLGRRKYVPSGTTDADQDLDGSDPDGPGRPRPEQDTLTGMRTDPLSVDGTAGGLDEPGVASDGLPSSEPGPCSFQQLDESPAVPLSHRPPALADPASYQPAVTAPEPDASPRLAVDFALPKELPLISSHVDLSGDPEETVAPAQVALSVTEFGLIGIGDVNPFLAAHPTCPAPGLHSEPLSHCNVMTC
UniProt Q99583: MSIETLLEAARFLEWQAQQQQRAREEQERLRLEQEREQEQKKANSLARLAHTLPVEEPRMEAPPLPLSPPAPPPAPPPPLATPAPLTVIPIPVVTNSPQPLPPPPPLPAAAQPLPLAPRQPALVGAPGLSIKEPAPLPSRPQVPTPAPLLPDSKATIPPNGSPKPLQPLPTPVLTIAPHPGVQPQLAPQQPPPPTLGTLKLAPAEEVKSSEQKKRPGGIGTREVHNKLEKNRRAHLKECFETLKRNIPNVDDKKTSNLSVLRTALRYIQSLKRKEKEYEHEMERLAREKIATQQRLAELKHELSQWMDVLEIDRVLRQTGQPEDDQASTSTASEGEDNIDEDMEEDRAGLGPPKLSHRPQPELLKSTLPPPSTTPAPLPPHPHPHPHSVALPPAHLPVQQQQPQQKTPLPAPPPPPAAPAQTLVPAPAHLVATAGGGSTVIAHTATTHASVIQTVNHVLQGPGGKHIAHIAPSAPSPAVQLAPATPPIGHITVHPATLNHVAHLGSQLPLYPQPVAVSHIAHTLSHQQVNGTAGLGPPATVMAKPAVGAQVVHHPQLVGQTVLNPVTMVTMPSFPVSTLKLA
UniProt Q86YT6, whole entry, looked up: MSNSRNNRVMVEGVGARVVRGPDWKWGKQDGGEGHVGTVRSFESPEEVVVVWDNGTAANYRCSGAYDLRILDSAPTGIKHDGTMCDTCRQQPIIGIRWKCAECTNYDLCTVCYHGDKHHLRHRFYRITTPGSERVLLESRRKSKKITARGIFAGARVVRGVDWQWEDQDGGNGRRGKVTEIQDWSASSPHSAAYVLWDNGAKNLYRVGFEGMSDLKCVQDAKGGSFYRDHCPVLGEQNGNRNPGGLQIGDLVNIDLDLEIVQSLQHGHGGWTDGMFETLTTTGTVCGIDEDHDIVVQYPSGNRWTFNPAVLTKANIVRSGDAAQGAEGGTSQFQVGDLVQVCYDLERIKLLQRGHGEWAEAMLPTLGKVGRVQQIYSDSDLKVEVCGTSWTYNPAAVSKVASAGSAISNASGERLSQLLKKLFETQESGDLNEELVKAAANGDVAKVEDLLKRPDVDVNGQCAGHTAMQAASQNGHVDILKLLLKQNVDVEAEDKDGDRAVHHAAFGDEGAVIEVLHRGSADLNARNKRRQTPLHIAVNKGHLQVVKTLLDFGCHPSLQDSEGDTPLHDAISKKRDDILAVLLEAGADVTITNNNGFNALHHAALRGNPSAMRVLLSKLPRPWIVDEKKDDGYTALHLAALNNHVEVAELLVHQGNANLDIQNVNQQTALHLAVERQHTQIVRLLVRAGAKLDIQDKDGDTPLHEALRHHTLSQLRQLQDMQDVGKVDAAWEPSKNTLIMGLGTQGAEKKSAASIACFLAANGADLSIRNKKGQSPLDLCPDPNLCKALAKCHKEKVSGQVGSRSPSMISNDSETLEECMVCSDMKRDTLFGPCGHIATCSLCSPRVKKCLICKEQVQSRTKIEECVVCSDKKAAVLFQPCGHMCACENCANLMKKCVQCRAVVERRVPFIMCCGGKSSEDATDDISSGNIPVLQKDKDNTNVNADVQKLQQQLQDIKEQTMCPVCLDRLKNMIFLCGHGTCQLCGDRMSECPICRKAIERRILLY
UniProt O75030: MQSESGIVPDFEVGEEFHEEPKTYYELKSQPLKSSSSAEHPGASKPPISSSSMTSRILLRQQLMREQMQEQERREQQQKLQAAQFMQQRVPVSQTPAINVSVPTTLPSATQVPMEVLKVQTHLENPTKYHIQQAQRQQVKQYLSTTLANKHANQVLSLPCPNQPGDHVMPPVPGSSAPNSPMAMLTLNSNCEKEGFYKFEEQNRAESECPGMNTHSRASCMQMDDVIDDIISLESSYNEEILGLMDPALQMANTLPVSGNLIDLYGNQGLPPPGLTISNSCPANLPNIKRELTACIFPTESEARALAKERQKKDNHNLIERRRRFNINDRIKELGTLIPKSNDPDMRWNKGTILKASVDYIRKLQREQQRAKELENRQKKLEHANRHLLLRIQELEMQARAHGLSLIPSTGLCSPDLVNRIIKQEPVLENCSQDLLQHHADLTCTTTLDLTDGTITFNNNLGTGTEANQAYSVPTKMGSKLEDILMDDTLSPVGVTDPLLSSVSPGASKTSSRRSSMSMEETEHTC

Experiments:
Assay in all cases: log2 fold change, soluble protein after heating vs DMSO (PISA); higher = thermal stabilisation; K562 lysate, 10 uM; active = over 0.2 and 3.5 SD of the protein, either way, in both replicates (recomputed)
nilotinib = compound: Cc1cn(-c2cc(NC(=O)c3ccc(C)c(Nc4nccc(-c5cccnc5)n4)c3)cc(C(F)(F)F)c2)cn1 [nilotinib]
Summary of the method: (§1)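 Soluble protein was defined as the supernatant remaining after 21,000xg for 90 min, following pooling of heated aliquots and adjustment to 0.5% NP-40 at 4°C. Before that, crude K562 extract at 1 mg/mL protein in PBS pH 7.4 with 1 mM MgCl2 was treated with 10 μM compound for 30 min and heated for 3 min across 48°C-58°C. Quantification used TMTpro 16plex LC-MS/MS with channel sums equalised, and values are log-two fold changes in thermal stability relative to solvent controls from duplicates.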

[1] = compound: Cc1nc(Nc2n[nH]c3c2CN(C(=O)N[C@H](CN(C)C)c2ccccc2)C3(C)C)c2sccc2n1
Summary of the method: as §1

dasatinib = compound: Cc1nc(Nc2ncc(C(=O)Nc3c(C)cccc3Cl)s2)cc(N2CCN(CCO)CC2)n1 [dasatinib]
Summary of the method: as §1

[2] = compound: Cc1ncc(-c2ccnc(Nc3ccc(S(C)(=O)=O)cc3)n2)n1C(C)C
Summary of the method: as §1

[3] = compound: Cn1cc(-c2ccc3c(c2)CCN3C(=O)Cc2cccc(C(F)(F)F)c2)c2c(N)ncnc21
Summary of the method: as §1

quisinostat = compound: Cn1cc(CNCC2CCN(c3ncc(C(=O)NO)cn3)CC2)c2ccccc21 [quisinostat]
Summary of the method: as §1

tipifarnib = compound: Cn1cncc1[C@@](N)(c1ccc(Cl)cc1)c1ccc2c(c1)c(-c1cccc(Cl)c1)cc(=O)n2C [tipifarnib]
Summary of the method: as §1

[4] = compound: NC(=O)Nc1cc(-c2cccc(F)c2)sc1C(=O)N[C@H]1CCCNC1
Summary of the method: as §1

[5] = compound: NC(=O)c1cnc(N[C@@H]2CCCC[C@@H]2N)nc1Nc1cccc(-n2nccn2)c1
Summary of the method: as §1

[6] = compound: NC1(c2ccc(-c3nc4ccn5c(=O)[nH]nc5c4cc3-c3ccccc3)cc2)CCC1
Summary of the method: as §1

Measured: log2 fold change

MRPL21 (UniProt Q7Z2W9)
inactive: nilotinib -0.096 | [1] -0.002 | dasatinib -0.037 | [2] 0.095 | [3] 0.026 | quisinostat -0.035 | tipifarnib 0.022 | [4] -0.015 | [5] 0.007 | [6] -0.014

MR1 (UniProt Q95460)
inactive: dasatinib -0.03 | [3] -0.052 | [6] -0.06

MNX1 (UniProt P50219)
inactive: dasatinib 0.007 | [3] -0.039 | quisinostat -0.008 | [4] 0.103 | [5] -0.177 | [6] 0.118

MROH1 (UniProt Q8NDA8)
inactive: dasatinib -0.115 | [3] -0.117 | quisinostat -0.167 | [4] 0.037

MLF2 (UniProt Q15773)
inactive: nilotinib -0.1 | [1] 0.013 | dasatinib -0.059 | [2] -0.059 | [3] -0.083 | quisinostat -0.028 | tipifarnib -0.071 | [4] 0.01 | [6] -0.079

MKKS (UniProt Q9NPJ1)
inactive: dasatinib 0.001 | [3] 0.074

MPHOSPH9 (UniProt Q99550)
inactive: quisinostat -0.085 | [4] 0.039 | [6] 0.112

MPI (UniProt P34949)
inactive: nilotinib 0.002 | [1] -0.02 | dasatinib -0.035 | [2] 0.019 | [3] -0.022 | quisinostat -0.025 | tipifarnib 0.009 | [4] 0.029 | [5] 0.016 | [6] -0.026

MGRN1 isoform 2 (UniProt O60291)
inactive: dasatinib -0.132 | [3] 0.062 | quisinostat -0.17 | [4] -0.107 | [5] -0.056 | [6] -0.107

MOCS2 (UniProt O96033)
inactive: dasatinib 0.044 | [3] -0.026 | quisinostat -0.011 | [4] 0.025 | [5] -0.033

MID1IP1 (UniProt Q9NPA3)
inactive: nilotinib -0.048 | [1] 0.013 | dasatinib -0.04 | [2] 0.021 | [3] -0.036 | quisinostat -0.012 | tipifarnib 0 | [4] 0.027 | [6] 0.126

Two records drawn at random from those above, as already listed:
MOCS2 (UniProt O96033)
inactive: dasatinib 0.044 | [3] -0.026 | quisinostat -0.011 | [4] 0.025 | [5] -0.033

MID1IP1 (UniProt Q9NPA3)
inactive: nilotinib -0.048 | [1] 0.013 | dasatinib -0.04 | [2] 0.021 | [3] -0.036 | quisinostat -0.012 | tipifarnib 0 | [4] 0.027 | [6] 0.126

Further entries follow.

MISP3 (UniProt Q96FF7)
inactive: nilotinib -0.042 | [1] 0.156 | dasatinib -0.024 | [2] 0.095 | [3] -0.119 | tipifarnib 0.139 | [5] 0.115

MKKS (UniProt Q9HB66)
inactive: [5] -0.023 | [6] 0.013

MRNIP (UniProt Q6NTE8)
inactive: nilotinib 0.126 | [1] -0.048 | dasatinib 0.075 | [2] -0.058 | [3] 0.096 | quisinostat -0.117 | tipifarnib -0.096 | [4] 0.056 | [5] 0.034 | [6] 0.057

MIPOL1 (UniProt Q8TD10)
inactive: dasatinib 0.009 | [3] 0 | quisinostat -0.596 | [4] -0.118 | [5] 0.171 | [6] -0.039

MINDY2 (UniProt Q8NBR6)
inactive: nilotinib 0.086 | [1] -0.062 | [2] 0.005 | quisinostat 0.033 | tipifarnib -0.058 | [4] 0.086 | [5] -0.027

MLXIPL (UniProt Q9NP71)
inactive: quisinostat -0.027 | [4] 0.044 | [6] -0.007

MPP5 (UniProt Q8N3R9)
inactive: nilotinib 0.015 | [1] -0.013 | dasatinib 0.028 | [2] -0.069 | [3] 0.009 | quisinostat -0.052 | tipifarnib 0.142 | [4] 0.002 | [6] -0.053

MOCS3 (UniProt O95396)
inactive: nilotinib -0.008 | [1] -0.054 | dasatinib -0.056 | [2] 0.056 | [3] -0.049 | quisinostat -0.219 | tipifarnib 0.045 | [4] -0.054 | [6] -0.03

MMACHC (UniProt Q9Y4U1)
inactive: nilotinib -0.099 | [1] -0.065 | dasatinib 0.029 | [2] 0.039 | [3] 0.15 | tipifarnib -0.028

MPHOSPH8 (UniProt Q99549)
inactive: dasatinib 0.065 | [3] -0.041 | quisinostat -0.07 | [4] 0.012 | [5] 0.018 | [6] 0.027

MKNK2 (UniProt Q9HBH9)
inactive: nilotinib -0.1 | [1] -0.093 | dasatinib -0.141 | [2] -0.025 | [3] 0.14 | tipifarnib -0.11 | [6] -0.137

MLKL (UniProt Q8NB16)
inactive: nilotinib -0.011 | [1] -0.036 | [2] -0.169 | quisinostat -0.141 | tipifarnib 0.037 | [4] 0.015 | [5] -0.039 | [6] -0.126

MIER2 (UniProt Q8N344)
inactive: dasatinib 0.174 | [3] -0.096 | [6] -0.121

MIDEAS, A0A1C7CYX1
inactive: dasatinib -0.086 | [3] -0.122 | quisinostat -0.33 | [4] 0.168 | [5] -0.027 | [6] -0.097

MRC2 (UniProt Q9UBG0)
inactive: nilotinib -0.001 | [1] -0.055 | dasatinib -0.201 | [2] 0.26 | [3] 0.073 | quisinostat -0.056 | tipifarnib 0.083 | [4] 0.144 | [6] 0.068

MNT (UniProt Q99583)
inactive: dasatinib 0.161 | [3] -0.088 | quisinostat -0.089 | [4] 0.015 | [5] -0.015 | [6] 0.038

MRE11 (UniProt F8W7U8)
inactive: [5] 0.034

MGMT (UniProt P16455)
inactive: dasatinib -0.098 | [3] -0.102

MIB1 (UniProt Q86YT6)
inactive: nilotinib 0.133 | [1] 0.128 | dasatinib 0.005 | [2] 0.012 | [3] -0.081 | quisinostat -0.008 | tipifarnib -0.041 | [4] 0.017 | [5] 0.094 | [6] -0.069

MITF (UniProt O75030)
inactive: dasatinib 0.038 | [3] 0.054 | quisinostat -0.01 | [4] 0.006 | [6] 0.043
